At least one compound was matched to its structure with a doubt left.
Legend:
Format in all cases: in vivo, human
[1] = Example 17 clinical study combining liraglutide and fasting; details: 15-hour fasting, dose weeks 1-4: 0.75/1.5/2.25/2.25 mg
[2] = Example 18 clinical study combining liraglutide and fasting; details: 18-hour fasting, dose weeks 1-4: 0.75/1.5/1.5/2.25 mg
[3] = Example 16 clinical study combining liraglutide and fasting; details: One-Meal-A-Day, dose weeks 1-4: 0.75/1.5/1.5/2.25 mg
[4] = no exercise, no calorie counting

Compound: CCCCCCCCCCCCCCCC(=O)N[C@@H](CCC(=O)NCCCC[C@H](NC(=O)[C@H](C)NC(=O)[C@H](C)NC(=O)[C@H](CCC(N)=O)NC(=O)CNC(=O)[C@H](CCC(=O)O)NC(=O)[C@H](CC(C)C)NC(=O)[C@H](Cc1ccc(O)cc1)NC(=O)[C@H](CO)NC(=O)[C@H](CO)NC(=O)[C@@H](NC(=O)[C@H](CC(=O)O)NC(=O)[C@H](CO)NC(=O)[C@@H](NC(=O)[C@H](Cc1ccccc1)NC(=O)[C@@H](NC(=O)CNC(=O)[C@H](CCC(=O)O)NC(=O)[C@H](C)NC(=O)[C@@H](N)Cc1cnc[nH]1)[C@@H](C)O)[C@@H](C)O)C(C)C)C(=O)N[C@@H](CCC(=O)O)C(=O)N[C@@H](Cc1ccccc1)C(=O)N[C@H](C(=O)N[C@@H](C)C(=O)N[C@@H](Cc1c[nH]c2ccccc12)C(=O)N[C@@H](CC(C)C)C(=O)N[C@H](C(=O)N[C@@H](CCCNC(=N)N)C(=O)NCC(=O)N[C@@H](CCCNC(=N)N)C(=O)NCC(=O)O)C(C)C)[C@@H](C)CC)C(=O)O [Liraglutide]
- Hunger [1]: no discernable or unusual hunger
- Therapeutic effects (e.g. weight loss) [1, 4]: Desirable therapeutics effects (e.g. weigh loss) are achieved
- Hunger [2]: no discernable or unusual hunger
- Therapeutic effects (e.g. weight loss) [2, 4]: Desirable therapeutics effects (e.g. weigh loss) are achieved
- Hunger [3]: no discernable or unusual hunger
- Therapeutic effects (e.g. weight loss) [3, 4]: Desirable therapeutics effects (e.g. weigh loss) are achieved
